The assay has as its target T1, endogenous TRAF6 of mouse cells (mouse (endogenous in BMDMs, Raw264.7, splenocytes)) (UniProt P70196).
T1 sequence: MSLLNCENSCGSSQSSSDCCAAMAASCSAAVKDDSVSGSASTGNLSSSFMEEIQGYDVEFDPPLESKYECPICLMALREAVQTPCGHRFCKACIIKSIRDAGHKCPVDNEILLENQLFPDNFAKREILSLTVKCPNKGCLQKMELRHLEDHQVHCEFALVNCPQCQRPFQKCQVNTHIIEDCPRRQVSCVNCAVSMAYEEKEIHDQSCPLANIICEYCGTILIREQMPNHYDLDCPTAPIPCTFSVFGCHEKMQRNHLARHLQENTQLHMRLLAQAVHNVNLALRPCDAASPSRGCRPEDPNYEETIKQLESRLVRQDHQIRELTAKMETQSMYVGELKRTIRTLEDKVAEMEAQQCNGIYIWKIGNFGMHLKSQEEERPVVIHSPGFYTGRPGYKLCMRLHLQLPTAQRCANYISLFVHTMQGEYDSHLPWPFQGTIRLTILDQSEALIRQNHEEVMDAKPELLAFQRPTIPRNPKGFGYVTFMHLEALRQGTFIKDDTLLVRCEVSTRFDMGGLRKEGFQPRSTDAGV
In words: co-IP; only the binder purified.

No constants are given. Whether binding was seen depends on the method and setting. In cells and extracts the contact can be indirect.

As to “rRv2626c-DN (dominant-negative form, E125Q and H126Q) (from UniProt P9WJA3 123-131)”, the binding entry was “no binding (tested: 2.5 μg/ml)”.

For the origin of these results see article PMC7721357.
